The list shows only some results of the screen, not a fair sample: it gathers tests that were run many times, whatever their T/C, doses with no T/C, and many T/C values between a quarter and a half above the control. Other doses and runs of a compound stand elsewhere. T/C is the treated group as % of the vehicle group. Some entries give survivors of the animals treated and no T/C: the source holds a T/C of zero for them, seemingly a mark for toxic or unscored doses. Some doses without a T/C left all or most animals alive at the check, yet need not have been tolerated: the source hardly ever lists a survival T/C far under the control, and the zero likely stands for such cases as well. Counts of survivors are from the toxicity check (mostly the fifth day) where no day follows; animals may have died later. Schedules are NCI's codes, taken here to give the interval after Q, in days (D) or hours (H), and the number of doses after X. Brackets with × give the number of equal values in this list. Some doses were run more than once; the values are given in rising order. For survival time, the PubChem record calls one and a half times the control and up active, and a quarter to a half above the control has no call in these data; cut-offs in other NCI protocols can differ. Some T/C values are followed by the survivors on the day toxicity was checked, most often the fifth; without a count, all were alive then.
Tested on: P388 leukemia ip, CD2F1 mice, survival T/C
Experiment: NCI In Vivo Anticancer Drug Screen. Data for tumor model P388 Leukemia (intraperitoneal) in CD2F1 (CDF1) mice
Settings: T/C endpoint: median survival time, higher T/C = longer survival
[1] = dose: 200.0 mg/kg/injection, schedule: Q01DX005 (ip), vehicle: saline with Tween-80
[2] = dose: 240.0 mg/kg/injection, schedule: Q01DX005 (ip), vehicle: Klucel (hydroxypropylcellulose) (HPC)
[3] = dose: 200.0 mg/kg/injection, schedule: Q04DX003 (ip), vehicle: saline with Tween-80
[4] = dose: 100.0 mg/kg/injection, schedule: Q01DX009 (ip), vehicle: distilled water + Tween-80
[5] = dose: 50.0 mg/kg/injection, schedule: Q01DX009 (ip), vehicle: Klucel (hydroxypropylcellulose) (HPC)
[6] = dose: 200.0 mg/kg/injection, schedule: Q01DX009 (ip), vehicle: Klucel (hydroxypropylcellulose) (HPC)
[7] = dose: 100.0 mg/kg/injection, schedule: Q01DX005 (ip), vehicle: saline with Tween-80
[8] = dose: 50.0 mg/kg/injection, schedule: Q01DX005 (ip), vehicle: saline with Tween-80
[9] = dose: 100.0 mg/kg/injection, schedule: Q01DX009 (ip), vehicle: saline with Tween-80

## NC1CCCCCC1
dose: 200.0 mg/kg/injection, schedule: Q01DX005 (ip), vehicle: saline
  survivor count: 0 of 5

## Cc1nn(C(=O)c2cccnc2)c(-c2ccccc2)c1N=Nc1ccc(C(=O)O)cc1
[1]
  survivor count: 6 of 6

## COC(=O)C(Cc1ccccc1)NC(=O)C(CC(C)C)NC(=O)C(CC(C)C)NC(=O)C(N)CC(C)C (stereo not drawn)
[1]
  survivor count: 3 of 6

## Cc1ccc(S(=O)(=O)C2(NC(=O)C3CC3)CC2)cc1
[2]
  survivor count: 6 of 6

## CCC1=C2C(=O)c3ccccc3C2=C(C)S(=O)(=O)O1
[3]
  survivor count: 4 of 6

## CNC(=O)OCc1c(COC(=O)NC)c(-c2ccc(N)cc2)n(C)c1C
dose: 50.0 mg/kg/injection, schedule: Q01DX009 (ip), vehicle: distilled water + Tween-80
  T/C: 134 % of control
[4]
  T/C: 135 % of control [5 of 6 alive]
  survivor count: 3 of 6
dose: 200.0 mg/kg/injection, schedule: Q01DX009 (ip), vehicle: distilled water + Tween-80
  survivor count: 0 of 6

## O=[N+]([O-])c1ccc(Cl)nc1Sc1ncccn1
[5]
  survivor count: 5 of 6
[6]
  survivor count: 0 of 6

## Cc1cc2nc(Cc3nc4cc(C)c(C)cc4[nH]3)[nH]c2cc1C
dose: 400.0 mg/kg/injection, schedule: Q01DX009 (ip), vehicle: saline with Tween-80
  survivor count: 5 of 6

## CC(C)NCC(O)c1ccccc1Cl (stereo not drawn)
[7]
  survivor count: 4 of 6
[1]
  survivor count: 0 of 6

## CC(/C=C/c1ccc(C)cc1)=N\NC(N)=S
dose: 12.0 mg/kg/injection, schedule: Q01DX005 (ip), vehicle: saline
  survivor count: 0 of 6
dose: 25.0 mg/kg/injection, schedule: Q01DX005 (ip), vehicle: saline
  survivor count: 0 of 6
dose: 50.0 mg/kg/injection, schedule: Q01DX005 (ip), vehicle: Klucel + Tween-80
  survivor count: 2 of 6
dose: 100.0 mg/kg/injection, schedule: Q01DX005 (ip), vehicle: Klucel + Tween-80
  survivor count: 0 of 6
dose: 200.0 mg/kg/injection, schedule: Q01DX005 (ip), vehicle: Klucel + Tween-80
  survivor count: 0 of 6

## [CH3][Sn]([CH3])([CH3])[N]=C=[N][Sn]([CH3])([CH3])[CH3]
dose: 1.6 mg/kg/injection, schedule: Q01DX005 (ip), vehicle: saline
  survivor count: 3 of 6
dose: 3.12 mg/kg/injection, schedule: Q01DX005 (ip), vehicle: saline with Tween-80
  survivor count: 0 of 6
dose: 6.25 mg/kg/injection, schedule: Q01DX005 (ip), vehicle: saline with Tween-80
  survivor count: 0 of 6
dose: 12.5 mg/kg/injection, schedule: Q01DX005 (ip), vehicle: saline with Tween-80
  survivor count: 0 of 6
[8]
  survivor count: 0 of 6
[7]
  survivor count: 0 of 6
[1]
  survivor count: 0 of 6

## N=C1CCC(=N)c2c1c(O)c1ccccc1c2O
[8]
  survivor count: 5 of 5
[7]
  survivor count: 5 of 5
[1]
  survivor count: 4 of 5

## COC(=O)[C@@H]1C(=O)[C@H](C(=O)OC)C2CCCC3CCCC1N32 (stereo partly drawn)
[1]
  survivor count: 5 of 6

## CCC1CN2CCc3cc(OC)c(OC)cc3C2CC1CC1c2cc(OC)c(OC)cc2CCN1C(=O)C(Cc1c[nH]c2ccccc12)NC(=O)OC(C)(C)C (stereo not drawn)
[9]
  T/C: 130 % of control
  survivor count: 6 of 6
dose: 150.0 mg/kg/injection, schedule: Q01DX009 (ip), vehicle: saline with Tween-80
  survivor count: 5 of 6
[3]
  survivor count: 6 of 6
dose: 400.0 mg/kg/injection, schedule: Q04DX003 (ip), vehicle: saline with Tween-80
  survivor count: 0 of 6

## O=C1OC(c2ccccc2)(c2ccccc2)CC1CC(O)(c1ccccc1)c1ccccc1 (stereo not drawn)
[1]
  survivor count: 6 of 6

## C=CCNSc1ccccc1
[5]
  survivor count: 0 of 6
dose: 100.0 mg/kg/injection, schedule: Q01DX009 (ip), vehicle: Klucel (hydroxypropylcellulose) (HPC)
  survivor count: 0 of 6
[6]
  survivor count: 0 of 6

## CSC(=S)/C(=C/Nc1ncccn1)c1ccccc1
dose: 15.0 mg/kg/injection, schedule: Q01DX005 (ip), vehicle: Klucel (hydroxypropylcellulose) (HPC)
  survivor count: 6 of 6
dose: 60.0 mg/kg/injection, schedule: Q01DX005 (ip), vehicle: Klucel (hydroxypropylcellulose) (HPC)
  survivor count: 6 of 6 (2×)
[2]
  survivor count: 6 of 6

## COC1/C=C/OC2(C)Oc3c(C)c(O)c4c(O)c(c(/C=N/N5C(C)CN(Cc6cccc(C#N)c6)CC5C)c(O)c4c3C2=O)NC(=O)/C(C)=C\C=C\C(C)C(O)C(C)C(O)C(C)C(OC(C)=O)C1C (stereo not drawn)
[9]
  survivor count: 5 of 6
dose: 200.0 mg/kg/injection, schedule: Q01DX009 (ip), vehicle: saline with Tween-80
  survivor count: 2 of 6

## NCCCNCCCCNC(=O)C(O)NC(=O)CCCCCCN=C(N)N (stereo not drawn)
dose: 3.12 mg/kg/injection, schedule: Q01DX005 (ip), vehicle: saline
  T/C: 146 % of control
dose: 6.25 mg/kg/injection, schedule: Q01DX005 (ip), vehicle: saline
  T/C: 146 % of control
dose: 6.7 mg/kg/injection, schedule: Q01DX009 (ip), vehicle: other, evaluated on day 30
  T/C: 196, 201, 208 % of control
dose: 6.7 mg/kg/injection, schedule: Q01DX009 (ip), vehicle: other, evaluated on day 45
  T/C: 198 % of control
dose: 6.7 mg/kg/injection, schedule: Q01DX009 (ip), vehicle: other, evaluated on day 60
  T/C: 204 % of control
dose: 6.7 mg/kg/injection, schedule: Q01DX009 (ip), vehicle: saline, evaluated on day 45
  T/C: 193, 200, 207, 211 % of control
dose: 6.7 mg/kg/injection, schedule: Q01DX009 (ip), vehicle: saline, evaluated on day 60
  T/C: 194 and 196 % of control
dose: 10.0 mg/kg/injection, schedule: Q01DX009 (ip), vehicle: other, evaluated on day 30
  T/C: 200, 205, 211 % of control
dose: 10.0 mg/kg/injection, schedule: Q01DX009 (ip), vehicle: other, evaluated on day 45
  T/C: 208 % of control
dose: 10.0 mg/kg/injection, schedule: Q01DX009 (ip), vehicle: other, evaluated on day 60
  T/C: 205 % of control
dose: 10.0 mg/kg/injection, schedule: Q01DX009 (ip), vehicle: saline, evaluated on day 45
  T/C: 204 (2×), 206, 209 % of control
dose: 10.0 mg/kg/injection, schedule: Q01DX009 (ip), vehicle: saline, evaluated on day 60
  T/C: 190, 201, 204 % of control
dose: 15.0 mg/kg/injection, schedule: Q01DX009 (ip), vehicle: other, evaluated on day 30
  T/C: 204 (2×) and 214 % of control
dose: 15.0 mg/kg/injection, schedule: Q01DX009 (ip), vehicle: other, evaluated on day 45
  T/C: 183 % of control
dose: 15.0 mg/kg/injection, schedule: Q01DX009 (ip), vehicle: other, evaluated on day 60
  T/C: 215 % of control
dose: 15.0 mg/kg/injection, schedule: Q01DX009 (ip), vehicle: saline, evaluated on day 45
  T/C: 197, 206, 215, 216 % of control
dose: 15.0 mg/kg/injection, schedule: Q01DX009 (ip), vehicle: saline, evaluated on day 60
  T/C: 200, 205, 207 % of control
dose: 22.5 mg/kg/injection, schedule: Q01DX009 (ip), vehicle: other, evaluated on day 30
  T/C: 204 (2×) and 205 % of control
dose: 22.5 mg/kg/injection, schedule: Q01DX009 (ip), vehicle: other, evaluated on day 45
  T/C: 120 % of control
dose: 22.5 mg/kg/injection, schedule: Q01DX009 (ip), vehicle: saline, evaluated on day 45
  T/C: 129, 202, 205, 214 % of control
dose: 22.5 mg/kg/injection, schedule: Q01DX009 (ip), vehicle: saline, evaluated on day 60
  T/C: 140, 194, 212 % of control
dose: 34.0 mg/kg/injection, schedule: Q01DX009 (ip), vehicle: saline
  survivor count: 8 of 10
dose: 50.0 mg/kg/injection, schedule: Q01DX005 (ip), vehicle: saline
  survivor count: 0 of 6 and 2 of 6
dose: 100.0 mg/kg/injection, schedule: Q01DX005 (ip), vehicle: saline
  survivor count: 0 of 6

— PubChem BioAssay AID330 (DTP/NCI, 2004)
